Source: patent US10273231B2, “Azoline compounds substituted by a condensed ring system” (BASF SE, priority 2014, dated 2019)
Some of these results come from one statement about several compounds together.

What was measured:
Type in all cases: in vivo
[1] = test system: Southern Armyworm (Spodoptera eridania); assay: B.10 Southern armyworm test on sprayed lima bean plants; conditions: at 10 ppm; larvae; assessed 4 days after treatment
[2] = test system: Brown Marmorated Stink Bug (Halyomorpha halys); assay: B.13 Brown marmorated stink bug test on peanuts and soybean seeds in plastic cups; conditions: at 100 ppm; adult stage; recorded after 5 days
Procedure: B.13 Brown Marmorated Stink Bug (Halyomorpha halys)
The active compound was dissolved at the desired concentration in a mixture of 1:1 (vol:vol) distilled water:acetone. Surfactant (Kinetic HV) was added at a rate of 0.01% (vol/vol).The test solution was prepared at the day of use.
Row peanuts and soybean seeds were placed into microwavable plastic cups and inoculated with five adult stage H. halys. Using a hand atomizer, approximately 1 ml solution is sprayed into each cup, insects and food present. A water source was provided (cotton wick with water). Each treatment is replicated 4-fold. Assay arenas are kept at about 25° C. Percent mortality was recorded after 5 days.

[3] = test system: Vetch Aphid (Megoura viciae); assay: B.3 Vetch aphid test on broad bean leaf disks; conditions: at 2500 ppm; adult aphids; assessed after 5 days
[4] = test system: Tobacco Budworm (Heliothis virescens); assay: B.4 Tobacco budworm test, insect diet with eggs in microtiter plates; conditions: at 2500 ppm; egg and larval mortality after 5 days

Measured: mortality in comparison with untreated controls

O=C(NCc1ccccn1)c1ccc(C2=NOC(c3cc(Cl)c(F)c(Cl)c3)(C(F)(F)F)C2)c2c1SCC2 (centres unmarked) [Compound I-9]
at least 75%: all assays above

O=C(NCc1ccc(C2=NOC(c3cc(Cl)c(F)c(Cl)c3)(C(F)(F)F)C2)c2c1OCC2)C1CC1 (centres unmarked) [Compound I-15]
at least 75%: all assays above

CC(=O)NCc1ccc(C2=NOC(c3cc(Cl)c(F)c(Cl)c3)(C(F)(F)F)C2)c2c1OCC2 (centres unmarked) [Compound I-17]
at least 75%: all assays above

CCC(=O)NCc1ccc(C2=NOC(c3cc(Cl)c(F)c(Cl)c3)(C(F)(F)F)C2)c2c1OCC2 (centres unmarked) [Compound I-18]
at least 75%: all assays above

O=C(NCc1ncccn1)c1ccc(C2=NOC(c3cc(Cl)c(F)c(Cl)c3)(C(F)(F)F)C2)c2c1[S+]([O-])CC2 (centres unmarked) [Compound I-20]
at least 75%: all assays above
